Values from PubChem BioAssay AID652259 (Drosophila RNAi Screening Center, 2013)
Assay: 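Knock-downs that push a Wingless-driven reporter up or down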 (primary screen). System: Drosophila clone 8 imaginal disc epithelial cells. Reagent: long dsRNA against Drosophila genes. Conditions: pathway stimulated by co-transfected Wingless expression plasmid. Measured: 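Dual luciferase reads per well after Wingless plasmid stimulation: reporter firefly light and Renilla control light; activity is firefly divided by Renilla, a ratio not deposited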. Scale: firefly reporter light: higher = more Wg reporter light, before normalisation; Renilla control light: higher = more transfected or surviving cells. Hit rule: 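a knock-down is a candidate when at least two out of four statistical tests show it departing from its plate mean; one test alone signals a weak candidate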. Calls: active = candidate regulator (raises or lowers reporter); inactive = not a candidate.
The screen tested about 22,000 reagents; this is an unselected part of those that have a named target and a result. Over the whole deposit, 233 (1.1%) are marked active. 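Light values are raw, unnormalised plate reads; the ratio scores behind the reporter calls were not deposited.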 Entries without a mark were called inactive. Names joined by + are all predicted targets of the reagent. The record does not give: the amount of reagent, the time to read-out, the dose of the treatment.

gene knocked down,dsRNA,"firefly reporter light, replicate 1","firefly reporter light, replicate 2","Renilla control light, replicate 1","Renilla control light, replicate 2"
vg,DRSC07715,11666,,4304,
vg,DRSC22669,4.80e5,4.92e5,2.22e5,1.77e5
Gss1 + Gss2,DRSC20008,25788,,11504,
Gss1 + Gss2,DRSC21539,4.09e5,4.48e5,64643,51518
Ip259,DRSC03352,8514,,1413,
Hakai,DRSC02031,10635,,1798,
CG11200,DRSC06060,10128,,2755,
Or49b,DRSC07494,7041,,2640,
Ubx,DRSC16891,22137,,6744,
CG9083 + Tpc2,DRSC04625,15928,,6666,
Acsx2,DRSC14308,13671,,2759,
nAChRbeta3,DRSC00325,11322,,2393,
CG14451,DRSC11708,10400,,2983,
CG10793,DRSC17760,16117,,10930,
CG10311,DRSC14228,21872,,4380,
CG30412,DRSC04564,8412,,2724,
Sf3b2,DRSC00619,10258,,3004,
CG14079,DRSC10083,10665,,3984,
Gfrl,DRSC15196,13835,,2850,
Gfrl,DRSC15197,4858,6112,1584,2327
Gfrl,DRSC15199,23047,,4006,
Gfrl,DRSC15565,2265,7573,1056,1900
Gfrl,DRSC15719,13050,,2362,
RFeSP,DRSC00702,2786,10727,1434,2403
armi,DRSC08193,7664,,3203,
Or59c,DRSC04633,3200,4906,756,2371
Rbm13,DRSC17749,20160,,13232,
CG9300,DRSC11064,6698,,3408,
CG7848,DRSC07050,3936,,1676,
ppk7,DRSC03236,1937,3883,249,1952
CG32237,DRSC08312,1561,8347,1237,3844
CG32237,DRSC08315,1520,13537,1237,4557
ND-24L,DRSC10650,8183,,3306,
NijC,DRSC14851,10774,,3613,
CG32814,DRSC17670,5274,,1469,
Kif19A,DRSC16576,3181,,1077,
usp,DRSC18847,25958,,13805,
CG5171,DRSC02823,8294,,4340,
CG3065,DRSC04333,6652,,1802,
CG14326,DRSC14805,18369,,4550,
CG14907 + Mettl4,DRSC15026,11340,,3603,
CG14907 + Mettl4,DRSC15027,13843,,3434,
mago,DRSC04703,1674,8280,404,3136
zpg,DRSC09702,2096,7252,992,3420
TwdlC,DRSC14749,7516,,2851,
Gr47b,DRSC05275,16769,,14394,
Art6,DRSC16583,16917,,3629,
CG9967,DRSC00742,11291,,2586,
mRF1,DRSC02880,9302,,1863,

In a second layout: 7 of the entries above.
ppk7 [DRSC03236] | firefly reporter light, replicate 1: 1937; firefly reporter light, replicate 2: 3883; Renilla control light, replicate 1: 249; Renilla control light, replicate 2: 1952
CG32237 [DRSC08312] | firefly reporter light, replicate 1: 1561; firefly reporter light, replicate 2: 8347; Renilla control light, replicate 1: 1237; Renilla control light, replicate 2: 3844
CG32237 [DRSC08315] | firefly reporter light, replicate 1: 1520; firefly reporter light, replicate 2: 13537; Renilla control light, replicate 1: 1237; Renilla control light, replicate 2: 4557
ND-24L [DRSC10650] | firefly reporter light, replicate 1: 8183; Renilla control light, replicate 1: 3306
NijC [DRSC14851] | firefly reporter light, replicate 1: 10774; Renilla control light, replicate 1: 3613
CG32814 [DRSC17670] | firefly reporter light, replicate 1: 5274; Renilla control light, replicate 1: 1469
Kif19A [DRSC16576] | firefly reporter light, replicate 1: 3181; Renilla control light, replicate 1: 1077
